Assay results taken from PubChem BioAssay AID2685 (National Center for Advancing Translational Sciences (NCATS), 2010).
This is one part of the list. Further columns of the screen follow, without active or inactive calls. The list favours compounds with an active or inconclusive main result. The note in brackets gives the kind of curve behind each potency; many fits are weak.

Test: qHTS Assay for Lipid Storage Modulators in Drosophila S3 Cells;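 for cell number change: cells counted by Cell Tracker Red CMTPX staining in the red channel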
Conditions: BODIPY lipid droplet fluorescence, 18-24 h; for cell number change: measured here: cell count max response, cells fed with added oleic acid
How it was run: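 Drosophila S3 cells got compounds at several concentrations plus oleic acid (400 uM solution). Laser-scanning cytometry with 488 nm excitation read lipid droplets at 500-530 nm and cells at 575-640 nm. Percent activity was relative to 20 uM Triacsin C.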

[1] = measured here: cell number channel AC50, cells fed with added oleic acid
[2] = measured here: lipid fluorescence (Fed channel) AC50, cells fed with added oleic acid

| Structure (SMILES) | cell number change [%] | AC50 [1] | AC50 [2] |
| --- | --- | --- | --- |
| S=C(c1ccc(-c2cc(Cl)ccc2Cl)o1)N1CCOCC1 | 69.8 | 517 nM [rising, full curve] | 1300 nM [rising, partial curve] |
| O=S(=O)(O/N=C1\CCCc2ccccc21)c1ccccc1 | -1.98 |  | 164 nM [falling, full curve, poor fit] |
| COc1cc(C(=O)Nc2ccc(S(=O)(=O)N(C)c3ccccc3)cc2)cc(OC)c1OC | -1.64 |  | 18400 nM [falling, single point] |
| Cc1ccc(NC(=O)CN2C(=O)NC(Cc3ccccc3)C2=O)c(Br)c1 (centres undefined) |  | 411 nM [rising, partial curve] |  |
| Cc1ccc(S(=O)(=O)N(C)CC(=O)OCc2nnc(-c3ccccc3)o2)cc1 | 3.97 |  | 29100 nM [falling, single point] |
| O=C(Nc1cccc(C(F)(F)F)c1)C1CCCN(S(=O)(=O)c2cnc[nH]2)C1 (centres undefined) | 4.18 |  |  |
| Cn1c(N)c(C(=O)COC(=O)CCOc2ccc(C(C)(C)C)cc2)c(=O)n(C)c1=O | 119 | 29100 nM [rising, single point] | 29100 nM [rising, partial curve] |
| COc1cccc(/C=N/NC(=O)c2cnn(-c3ccccc3)c2N)c1 | -19.9 |  | 29100 nM [falling, single point] |
| COc1ccccc1/C=N\N=C(\N)c1ccccn1 | 8.21 |  | 731 nM [falling, full curve, poor fit] |
| CCOc1ccc(C(=O)N/N=C/c2cccc3cccnc23)cc1 | -14.3 |  | 2310 nM [falling, partial curve] |
| C[C@H](NC(=O)C1(c2ccccc2)CCN(C(=O)[C@H]2CSCN2C(=O)OC(C)(C)C)CC1)C(=O)O |  |  | 29100 nM [falling, single point] |
| COc1cccc(-c2coc3c(C)c4oc(=O)c(CC(=O)O)c(C)c4cc23)c1 | -21.6 | 130 nM [falling, full curve, poor fit] | 6510 nM [rising, single point] |
| COc1cccc(N(C(=O)Cn2nnc(-c3ccc(C)o3)n2)C(C(=O)NC2CCCC2)c2ccncc2)c1 (centres undefined) | -1.32 |  | 35500 nM [falling, single point] |
| O=C(CC1OC(=O)c2ccccc21)Nc1cc(Cl)ccc1N1CCCC1 (centres undefined) | -36.9 | 1300 nM [rising, partial curve] |  |
| COc1ccc(C)cc1NC(=O)CSc1ccc(-c2cccnc2)nn1 | -1.01 |  |  |
| CC(C)[C@H](NC(=O)c1ccccc1)C(=O)OCC(=O)N1CCc2ccccc2C1 | -3.96 |  | 1160 nM [rising, single point] |
| Cc1ccc(C(=O)N(C)CCOc2ccccc2)cc1S(=O)(=O)N1CCCCC1 | -9.47 |  |  |
| Cc1onc(-c2c(F)cccc2Cl)c1C(=O)N1CCCc2ccccc21 | 4.02 |  | 731 nM [falling, full curve, poor fit] |
| Cc1nc(N2CCOCC2)nc(N2CCCCC2)c1[N+](=O)[O-] | 9.45 |  | 20600 nM [rising, partial curve] |
| O=C(CN1C(=O)/C(=C/c2ccccc2Cl)SC1=S)NC1C=CS(=O)(=O)C1 (centres undefined) | 2.97 |  | 18400 nM [falling, partial curve] |

A stretch from further up:

| Structure (SMILES) | cell number change [%] | AC50 [1] | AC50 [2] |
| --- | --- | --- | --- |
| Cc1ccc(NC(=O)CN2C(=O)NC(Cc3ccccc3)C2=O)c(Br)c1 (centres undefined) |  | 411 nM [rising, partial curve] |  |
| Cc1ccc(S(=O)(=O)N(C)CC(=O)OCc2nnc(-c3ccccc3)o2)cc1 | 3.97 |  | 29100 nM [falling, single point] |
| O=C(Nc1cccc(C(F)(F)F)c1)C1CCCN(S(=O)(=O)c2cnc[nH]2)C1 (centres undefined) | 4.18 |  |  |

(cont.)

| Structure (SMILES) | cell number change [%] | AC50 [1] | AC50 [2] |
| --- | --- | --- | --- |
| COCc1cc(C)nc(SCC(=O)Nc2cccc(C)c2C)c1C#N |  | 920 nM [rising, partial curve] | 58 nM [rising, full curve, poor fit] |
| Cc1ccc(C(=O)OCC(=O)N2C(C)CCCC2C)cc1S(=O)(=O)N1CCCCC1 (centres undefined) | -41.1 | 920 nM [falling, full curve] | 29100 nM [falling, single point] |
| Cc1ccc(OCC(=O)N/N=C/c2cccnc2)cc1 | 22.7 |  |  |
| Fc1ccc(CNCC2CCCO2)cc1 (centres undefined) | 17.5 |  | 651 nM [rising, single point] |
| Nc1nc(NCCCN2CCOCC2)nc(NCc2ccccc2)c1[N+](=O)[O-] | 10.2 |  |  |
| O=C(NCc1ccco1)c1cccc(Br)c1 | 7.66 |  | 580 nM [rising, single point] |
| CCC(=O)Nc1c(C)n[nH]c1C | 1.65 |  | 29100 nM [falling, single point] |
| Cc1ccc(-c2csc(N3CCN(CCCn4c(C(F)(F)F)nc5ccccc54)CC3)n2)cc1 | -7.78 |  | 6510 nM [falling, single point] |
| O=C(CSc1nnc(CCCO)n1-c1ccccc1)Nc1nccs1 | 32.7 |  | 6510 nM [rising, single point] |
| CCN(NC(=O)C(O)(c1ccc(F)cc1)c1ccc(F)cc1)C(=O)c1ccccc1 | -8.96 |  | 5.17 nM [falling, full curve, poor fit] |
| COC(=O)c1ccc(C2C(Oc3ccccc3)C(=O)N2CCc2ccc(OC)c(OC)c2)cc1 (centres undefined) | -4.57 |  |  |
| N#Cc1cccc(-c2cn(S(=O)(=O)c3ccc(Cl)cc3)nc2N)c1 | -1.15 |  | 231 nM [rising, full curve, poor fit] |
| Cc1ccc(NC(=O)CSc2nc(=O)n(CCN(C)C)c3c2CCCC3)c(C)c1 | -3.4 |  |  |
| Cn1c(=O)cc(OCC(=O)NCCCN2CCN(c3cccc(Cl)c3)CC2)c2ccccc21 | 2.99 |  | 2910 nM [rising, full curve] |
| CCN(Cc1cnn(C)c1)C(=O)C1CCC(=O)N(CCc2ccc(OC)cc2)C1 (centres undefined) | -10.2 |  |  |
| COc1cc(F)ccc1S(=O)(=O)NCc1cccnc1 | 11.4 |  | 920 nM [rising, full curve, poor fit] |
| O=C(CN1CCN(S(=O)(=O)c2ccc(F)cc2)CC1)NCc1cccs1 | -15.7 |  |  |
| COC(=O)c1ccc(S(=O)(=O)NCc2ccccn2)n1C | -14.3 |  | 116 nM [rising, full curve, poor fit] |
| Cc1cc([N+](=O)[O-])nn1CC(=O)NCc1ccc(Cl)cc1 | 34.6 | 3660 nM [rising, full curve] |  |
| O=C(NCC(c1ccco1)N1CCCC1)c1ccc(S(=O)(=O)Nc2ccccc2Cl)cc1 (centres undefined) | -21.6 | 13 nM [falling, full curve, poor fit] | 1840 nM [falling, partial curve] |
